These are yes or no findings as the source states them, for the method shown. Binding seen in cells or lysates may run through a third protein. Some results given as binding are weak or reduced against the parent protein; the word gives no strength. Tags and fused reporters may be left off the sequences shown. Each block holds one binder with its values, some of them ahead of it.
What was measured:
[1] = molecular target: H2A.Z (Htz1), wild type, 2Flag-tagged (S. cerevisiae) (UniProt Q12692); experiment: co-IP; htz1Δ yeast strains bearing TAP-tagged Nap1 or Chz1, transformed with WT or mutant H2A.Z-2Flag plasmids; read by immunoblot; performed as in ref. 10
[2] = molecular target: H2A.Z (Htz1), wild type, 2Flag-tagged (S. cerevisiae), Q12692; experiment: as above; details: remark: other sources report otherwise

Protein sequences, listed by entry. Tags and fused reporters are not part of them. Lines headed by an entry give the natural chain unless they say otherwise; changes in a name come on top.
UniProt Q12692: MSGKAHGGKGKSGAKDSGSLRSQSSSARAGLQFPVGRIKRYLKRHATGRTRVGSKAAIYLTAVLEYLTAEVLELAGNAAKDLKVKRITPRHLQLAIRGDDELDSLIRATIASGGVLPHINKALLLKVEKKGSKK

binding [1]: binds
B1: TAP-tagged Nap1 (protein, UniProt P25293 1-417)
chain: MSDPIRTKPKSSMQIDNAPTPHNTPASVLNPSYLKNGNPVRAQAQEQDDKIGTINEEDILANQPLLLQSIQDRLGSLVGQDSGYVGGLPKNVKEKLLSLKTLQSELFEVEKEFQVEMFELENKFLQKYKPIWEQRSRIISGQEQPKPEQIAKGQEIVESLNETELLVDEEEKAQNDSEEEQVKGIPSFWLTALENLPIVCDTITDRDAEVLEYLQDIGLEYLTDGRPGFKLLFRFDSSANPFFTNDILCKTYFYQKELGYSGDFIYDHAEGCEISWKDNAHNVTVDLEMRKQRNKTTKQVRTIEKITPIESFFNFFDPPKIQNEDQDEELEEDLEERLALDYSIGEQLKDKLIPRAVDWFTGAALEFEFEEDEEEADEDEDEEEDDDHGLEDDDGESAEEQDDFAGRPEQAPECKQS

binding [2]: binds
B2: TAP-tagged Chz1, P40019 1-153 (protein)
chain: MSDEAKEKRELESQKESSHNKSEKSVEPKPKRRRRRNYDDYDAEVAKEETKAKNGLTKSENNGTVEDSESDMDDAKLDALMGNEGEEEEDDLAEIDTSNIITSGRRTRGKVIDYKKTAEELDKKEPSTGSKDDVGYGEKEEDDEDEEDDDFKE

Reference: PMC5589762
